Source: US12225904B2, “Phenylpyrazole compound and method for controlling plant disease” (SUMITOMO CHEMICAL COMPANY, LIMITED, priority 2019, dated 2025)
Some entries share one result that the patent states for a list of compounds. For at least one compound, name, drawing or mass did not settle the structure.

Key:
Format in all cases: in vivo
[1] = test system: soybean rust (Phakopsora pachyrhizi); experiment: Test Example 5: control test against soybean rust, foliar spray on potted soybean; details: for lesion area compared to the lesion areas in an untreated soybean: comparative test according to Test example 5 (200 ppm foliar spray, soybean); for lesion area compared to the lesion area in an untreated soybean: 200 ppm foliar spray, soybean cv Kurosengoku, spores inoculated 2 to 5 days after spraying, observed after 10 to 14 days
[2] = test system: Septoria leaf blotch (Septoria tritici); experiment: Test Example 9: control test against Septoria leaf blotch, foliar spray on potted wheat; details: 200 ppm foliar spray; wheat cv Apogee; spores inoculated 4 days after spraying
[3] = test system: Septoria leaf blotch (Septoria tritici); experiment: Test Example 8: control test against Septoria leaf blotch, foliar spray on potted wheat; details: 500 ppm foliar spray; wheat cv Apogee; spores inoculated 4 days after spraying

## Cc1ccc(S(=O)(=O)n2cc(Cl)c(-c3cccc(F)c3)n2)cc1 [cf1, reference compound]
[1]
  lesion area compared to the lesion areas in an untreated soybean: ≥ 70%

## Cc1ccc(S(=O)(=O)n2cc(Cl)c(-c3cccc4c3OC(F)(F)O4)n2)cc1 [cf2, reference compound]
[1]
  lesion area compared to the lesion areas in an untreated soybean: ≥ 70%

## CN(C)S(=O)(=O)n1cc(Cl)c(-c2cccc3c2OC(F)(F)O3)n1 [cf3, reference compound]
[1]
  lesion area compared to the lesion areas in an untreated soybean: ≥ 70%

## Cc1cc(-c2ccc(Cl)cc2)nn1S(C)(=O)=O [cf4, reference compound]
[1]
  lesion area compared to the lesion areas in an untreated soybean: ≥ 70%

## CC(C)S(=O)(=O)n1ccc(-c2ccc(Cl)cc2)n1 [compound 3]
[1]
  lesion area compared to the lesion area in an untreated soybean: ≤ 30%
[2]
  lesion area compared to the lesion area in an untreated wheat: ≤ 30%

## O=S(=O)(n1ccc(-c2ccc(Cl)cc2)n1)C(F)(F)C(F)(F)C(F)(F)C(F)(F)F [compound 8]
[2]
  lesion area compared to the lesion area in an untreated wheat: ≤ 30%

## CCS(=O)(=O)n1ccc(-c2cc(F)c(F)c(F)c2)n1 [compound 13]
[1]
  lesion area compared to the lesion area in an untreated soybean: ≤ 30%
[2]
  lesion area compared to the lesion area in an untreated wheat: ≤ 30%

## CS(=O)(=O)n1ccc(-c2ccc(Cl)c(Cl)c2)n1 [compound 14]
[2]
  lesion area compared to the lesion area in an untreated wheat: ≤ 30%

## O=S(=O)(n1ccc(-c2ccc(Cl)cc2)n1)C(F)(F)F [compound 31]
[3]
  lesion area compared to the lesion area in an untreated wheat: ≤ 30%

## CCS(=O)(=O)n1ccc(-c2ccc(Cl)c(C(F)(F)F)c2)n1 [compound 33]
[1]
  lesion area compared to the lesion area in an untreated soybean: ≤ 30%
[2]
  lesion area compared to the lesion area in an untreated wheat: ≤ 30%

## CCS(=O)(=O)n1ccc(-c2ccc(Cl)c([N+](=O)[O-])c2)n1 [compound 36]
[1]
  lesion area compared to the lesion area in an untreated soybean: ≤ 30%

## CCS(=O)(=O)n1ccc(-c2ccc(Cl)cc2Cl)n1 [compound 37]
[3]
  lesion area compared to the lesion area in an untreated wheat: ≤ 30%
[2]
  lesion area compared to the lesion area in an untreated wheat: ≤ 30%

## CCCS(=O)(=O)n1ccc(-c2ccc(C(F)(F)F)cc2)n1 [compound 41]
[1]
  lesion area compared to the lesion area in an untreated soybean: ≤ 30%
[3]
  lesion area compared to the lesion area in an untreated wheat: ≤ 30%

## CCCS(=O)(=O)n1ccc(-c2ccc(F)c(F)c2)n1 [compound 42]
[1]
  lesion area compared to the lesion area in an untreated soybean: ≤ 30%

## CCCS(=O)(=O)n1ccc(-c2ccc(Cl)c(C)c2)n1 [compound 43]
[1]
  lesion area compared to the lesion area in an untreated soybean: ≤ 30%

## CCCS(=O)(=O)n1ccc(-c2cc(F)c(F)c(F)c2)n1 [compound 44]
[1]
  lesion area compared to the lesion area in an untreated soybean: ≤ 30%
[2]
  lesion area compared to the lesion area in an untreated wheat: ≤ 30%

## CCS(=O)(=O)n1ccc(-c2ccc(C(F)(F)F)c(F)c2)n1 [compound 46]
[1]
  lesion area compared to the lesion area in an untreated soybean: ≤ 30%

## CCS(=O)(=O)n1ccc(-c2ccc(C)c(F)c2)n1 [compound 48]
[1]
  lesion area compared to the lesion area in an untreated soybean: ≤ 30%
[3]
  lesion area compared to the lesion area in an untreated wheat: ≤ 30%

## CCS(=O)(=O)n1ccc(-c2ccc(Br)c(C)c2)n1 [compound 52]
[2]
  lesion area compared to the lesion area in an untreated wheat: ≤ 30%

## CCS(=O)(=O)n1ccc(-c2ccc(Br)c([N+](=O)[O-])c2)n1 [compound 53]
[1]
  lesion area compared to the lesion area in an untreated soybean: ≤ 30%

## CCS(=O)(=O)n1ccc(-c2ccc(C)c([N+](=O)[O-])c2)n1 [compound 54]
[1]
  lesion area compared to the lesion area in an untreated soybean: ≤ 30%

## CCS(=O)(=O)n1ccc(-c2ccc(Br)c(Cl)c2)n1 [compound 55]
[1]
  lesion area compared to the lesion area in an untreated soybean: ≤ 30%
[3]
  lesion area compared to the lesion area in an untreated wheat: ≤ 30%

## CCCS(=O)(=O)n1ccc(-c2ccc(I)cc2)n1 [compound 56]
[1]
  lesion area compared to the lesion area in an untreated soybean: ≤ 30%
[3]
  lesion area compared to the lesion area in an untreated wheat: ≤ 30%

## CCS(=O)(=O)n1ccc(-c2ccc(F)c(Br)c2)n1 [compound 60]
[1]
  lesion area compared to the lesion area in an untreated soybean: ≤ 30%

## CCCS(=O)(=O)n1ccc(-c2ccc(F)c(Br)c2)n1 [compound 61]
[3]
  lesion area compared to the lesion area in an untreated wheat: ≤ 30%
[2]
  lesion area compared to the lesion area in an untreated wheat: ≤ 30%

## CN(C)S(=O)(=O)n1ccc(-c2ccc(F)c(Br)c2)n1 [compound 64]
[3]
  lesion area compared to the lesion area in an untreated wheat: ≤ 30%
[2]
  lesion area compared to the lesion area in an untreated wheat: ≤ 30%

## CN(C)S(=O)(=O)n1ccc(-c2cc(F)c(F)c(F)c2)n1 [compound 65]
[3]
  lesion area compared to the lesion area in an untreated wheat: ≤ 30%

## CN(C)S(=O)(=O)n1ccc(-c2ccc(I)cc2)n1 [compound 67]
[1]
  lesion area compared to the lesion area in an untreated soybean: ≤ 30%
[2]
  lesion area compared to the lesion area in an untreated wheat: ≤ 30%

## CCS(=O)(=O)n1ccc(-c2cc(F)c(Br)c(F)c2)n1 [compound 69]
[1]
  lesion area compared to the lesion area in an untreated soybean: ≤ 30%

## CCCS(=O)(=O)n1ccc(-c2cc(F)c(Br)c(F)c2)n1 [compound 70]
[1]
  lesion area compared to the lesion area in an untreated soybean: ≤ 30%

## CN(C)S(=O)(=O)n1ccc(-c2cc(F)c(Br)c(F)c2)n1 [compound 71]
[1]
  lesion area compared to the lesion area in an untreated soybean: ≤ 30%

## Cc1cc(-c2ccn(S(=O)(=O)N(C)C)n2)ccc1Cl [compound 72]
[1]
  lesion area compared to the lesion area in an untreated soybean: ≤ 30%
[3]
  lesion area compared to the lesion area in an untreated wheat: ≤ 30%

## O=S(=O)(N1CCCC1)n1ccc(-c2ccc(Br)c(F)c2)n1 [compound 73]
[1]
  lesion area compared to the lesion area in an untreated soybean: ≤ 30%

## C=CCS(=O)(=O)n1ccc(-c2ccc(Br)c(F)c2)n1 [compound 74]
[1]
  lesion area compared to the lesion area in an untreated soybean: ≤ 30%

## CC=CS(=O)(=O)n1ccc(-c2ccc(Br)c(F)c2)n1 [compound 75]
[1]
  lesion area compared to the lesion area in an untreated soybean: ≤ 30%

## CS(=O)(=O)n1ccc(-c2ccc(Br)c(F)c2)n1 [compound 78]
[1]
  lesion area compared to the lesion area in an untreated soybean: ≤ 30%

## CCCCS(=O)(=O)n1ccc(-c2ccc(Br)c(F)c2)n1 [compound 80]
[1]
  lesion area compared to the lesion area in an untreated soybean: ≤ 30%
[3]
  lesion area compared to the lesion area in an untreated wheat: ≤ 30%

## O=S(=O)(C1CC1)n1ccc(-c2ccc(Br)c(F)c2)n1 [compound 81]
[1]
  lesion area compared to the lesion area in an untreated soybean: ≤ 30%
[3]
  lesion area compared to the lesion area in an untreated wheat: ≤ 30%

## O=S(=O)(N1CCOCC1)n1ccc(-c2ccc(Br)c(F)c2)n1 [compound 82]
[1]
  lesion area compared to the lesion area in an untreated soybean: ≤ 30%

## CCS(=O)(=O)n1ccc(-c2cc(F)c(C(F)(F)F)c(F)c2)n1 [compound 84]
[1]
  lesion area compared to the lesion area in an untreated soybean: ≤ 30%

## CCCS(=O)(=O)n1ccc(-c2cc(F)c(C(F)(F)F)c(F)c2)n1 [compound 85]
[1]
  lesion area compared to the lesion area in an untreated soybean: ≤ 30%
[2]
  lesion area compared to the lesion area in an untreated wheat: ≤ 30%

## CC(C)CS(=O)(=O)n1ccc(-c2ccc(Br)c(F)c2)n1 [compound 93]
[1]
  lesion area compared to the lesion area in an untreated soybean: ≤ 30%

## CCS(=O)(=O)n1ccc(-c2cc(F)c(I)c(F)c2)n1 [compound 94]
[1]
  lesion area compared to the lesion area in an untreated soybean: ≤ 30%

## CCCS(=O)(=O)n1ccc(-c2cc(F)c(I)c(F)c2)n1 [compound 95]
[1]
  lesion area compared to the lesion area in an untreated soybean: ≤ 30%

## CCS(=O)(=O)n1ccc(-c2ccc3c(c2)OCO3)n1 [compound 102]
[1]
  lesion area compared to the lesion area in an untreated soybean: ≤ 30%

## CCS(=O)(=O)n1ccc(-c2ccc3c(c2)CCCC3)n1 [compound 103]
[1]
  lesion area compared to the lesion area in an untreated soybean: ≤ 30%

## CCS(=O)(=O)n1ccc(-c2ccc3c(c2)CCC3)n1 [compound 105]
[1]
  lesion area compared to the lesion area in an untreated soybean: ≤ 30%
[3]
  lesion area compared to the lesion area in an untreated wheat: ≤ 30%

## CCS(=O)(=O)n1ccc(-c2ccc3c(c2)CCO3)n1 [compound 106]
[1]
  lesion area compared to the lesion area in an untreated soybean: ≤ 30%

## CCS(=O)(=O)n1ccc(-c2ccc3ncsc3c2)n1 [compound 108]
[1]
  lesion area compared to the lesion area in an untreated soybean: ≤ 30%
[3]
  lesion area compared to the lesion area in an untreated wheat: ≤ 30%

## CCS(=O)(=O)n1ccc(-c2ccc(Cl)cc2OC)n1 [compound 113]
[3]
  lesion area compared to the lesion area in an untreated wheat: ≤ 30%

## CCS(=O)(=O)n1ccc(-c2ccc3ocnc3c2)n1 [compound 115]
[1]
  lesion area compared to the lesion area in an untreated soybean: ≤ 30%
[2]
  lesion area compared to the lesion area in an untreated wheat: ≤ 30%

## CC(C)S(=O)(=O)n1ccc(-c2cc(F)c(Br)c(F)c2)n1 [compound 117]
[1]
  lesion area compared to the lesion area in an untreated soybean: ≤ 30%

## CCS(=O)(=O)n1ccc(-c2cccc(OC(F)(F)F)c2)n1 [compound 131]
[2]
  lesion area compared to the lesion area in an untreated wheat: ≤ 30%

## CCS(=O)(=O)n1ccc(-c2cccc(OCc3ccccc3)c2)n1 [compound 143]
[1]
  lesion area compared to the lesion area in an untreated soybean: ≤ 30%

## CCCS(=O)(=O)n1ccc(-c2cccc(OCc3ccccc3)c2)n1 [compound 144]
[1]
  lesion area compared to the lesion area in an untreated soybean: ≤ 30%

## CCS(=O)(=O)n1ccc(-c2cccc(Br)c2)n1 [compound 145]
[1]
  lesion area compared to the lesion area in an untreated soybean: ≤ 30%
[2]
  lesion area compared to the lesion area in an untreated wheat: ≤ 30%

## CCS(=O)(=O)n1ccc(-c2cccc(F)c2)n1 [compound 149]
[1]
  lesion area compared to the lesion area in an untreated soybean: ≤ 30%

## CCS(=O)(=O)n1ccc(-c2cccc(Oc3ccccc3)c2)n1 [compound 151]
[2]
  lesion area compared to the lesion area in an untreated wheat: ≤ 30%

## CCS(=O)(=O)n1ccc(-c2cccc(NC(=O)C3CC3)c2)n1 [compound 159]
[2]
  lesion area compared to the lesion area in an untreated wheat: ≤ 30%

## CCCS(=O)(=O)n1ccc(-c2cccc(C(=O)NC3CC3)c2)n1 [compound 161]
[1]
  lesion area compared to the lesion area in an untreated soybean: ≤ 30%

## C=CS(=O)(=O)n1ccc(-c2cccc(C(=O)NC3CC3)c2)n1 [compound 162]
[1]
  lesion area compared to the lesion area in an untreated soybean: ≤ 30%

## C=CCOc1cccc(-c2ccn(S(=O)(=O)CCC)n2)c1 [compound 170]
[2]
  lesion area compared to the lesion area in an untreated wheat: ≤ 30%

## CCCS(=O)(=O)n1ccc(-c2cccc(OCc3ccc(C)cc3)c2)n1 [compound 179]
[2]
  lesion area compared to the lesion area in an untreated wheat: ≤ 30%

## CCCS(=O)(=O)n1ccc(-c2cccc(OCc3c(F)c(F)c(F)c(F)c3F)c2)n1 [compound 180]
[2]
  lesion area compared to the lesion area in an untreated wheat: ≤ 30%

## CCCS(=O)(=O)n1ccc(-c2cccc(OCc3cc(F)c(F)c(F)c3)c2)n1 [compound 181]
[2]
  lesion area compared to the lesion area in an untreated wheat: ≤ 30%
